# Source: patent US4529733A, “Antihypertensive 3-furoyl-1,4-dihydropyridines” (Merrell Dow Pharmaceuticals Inc., priority 1983, dated 1985)
# Sequences of proteins named here, by UniProt entry; tags and fusion partners are left off.
# UniProt O35505, whole entry: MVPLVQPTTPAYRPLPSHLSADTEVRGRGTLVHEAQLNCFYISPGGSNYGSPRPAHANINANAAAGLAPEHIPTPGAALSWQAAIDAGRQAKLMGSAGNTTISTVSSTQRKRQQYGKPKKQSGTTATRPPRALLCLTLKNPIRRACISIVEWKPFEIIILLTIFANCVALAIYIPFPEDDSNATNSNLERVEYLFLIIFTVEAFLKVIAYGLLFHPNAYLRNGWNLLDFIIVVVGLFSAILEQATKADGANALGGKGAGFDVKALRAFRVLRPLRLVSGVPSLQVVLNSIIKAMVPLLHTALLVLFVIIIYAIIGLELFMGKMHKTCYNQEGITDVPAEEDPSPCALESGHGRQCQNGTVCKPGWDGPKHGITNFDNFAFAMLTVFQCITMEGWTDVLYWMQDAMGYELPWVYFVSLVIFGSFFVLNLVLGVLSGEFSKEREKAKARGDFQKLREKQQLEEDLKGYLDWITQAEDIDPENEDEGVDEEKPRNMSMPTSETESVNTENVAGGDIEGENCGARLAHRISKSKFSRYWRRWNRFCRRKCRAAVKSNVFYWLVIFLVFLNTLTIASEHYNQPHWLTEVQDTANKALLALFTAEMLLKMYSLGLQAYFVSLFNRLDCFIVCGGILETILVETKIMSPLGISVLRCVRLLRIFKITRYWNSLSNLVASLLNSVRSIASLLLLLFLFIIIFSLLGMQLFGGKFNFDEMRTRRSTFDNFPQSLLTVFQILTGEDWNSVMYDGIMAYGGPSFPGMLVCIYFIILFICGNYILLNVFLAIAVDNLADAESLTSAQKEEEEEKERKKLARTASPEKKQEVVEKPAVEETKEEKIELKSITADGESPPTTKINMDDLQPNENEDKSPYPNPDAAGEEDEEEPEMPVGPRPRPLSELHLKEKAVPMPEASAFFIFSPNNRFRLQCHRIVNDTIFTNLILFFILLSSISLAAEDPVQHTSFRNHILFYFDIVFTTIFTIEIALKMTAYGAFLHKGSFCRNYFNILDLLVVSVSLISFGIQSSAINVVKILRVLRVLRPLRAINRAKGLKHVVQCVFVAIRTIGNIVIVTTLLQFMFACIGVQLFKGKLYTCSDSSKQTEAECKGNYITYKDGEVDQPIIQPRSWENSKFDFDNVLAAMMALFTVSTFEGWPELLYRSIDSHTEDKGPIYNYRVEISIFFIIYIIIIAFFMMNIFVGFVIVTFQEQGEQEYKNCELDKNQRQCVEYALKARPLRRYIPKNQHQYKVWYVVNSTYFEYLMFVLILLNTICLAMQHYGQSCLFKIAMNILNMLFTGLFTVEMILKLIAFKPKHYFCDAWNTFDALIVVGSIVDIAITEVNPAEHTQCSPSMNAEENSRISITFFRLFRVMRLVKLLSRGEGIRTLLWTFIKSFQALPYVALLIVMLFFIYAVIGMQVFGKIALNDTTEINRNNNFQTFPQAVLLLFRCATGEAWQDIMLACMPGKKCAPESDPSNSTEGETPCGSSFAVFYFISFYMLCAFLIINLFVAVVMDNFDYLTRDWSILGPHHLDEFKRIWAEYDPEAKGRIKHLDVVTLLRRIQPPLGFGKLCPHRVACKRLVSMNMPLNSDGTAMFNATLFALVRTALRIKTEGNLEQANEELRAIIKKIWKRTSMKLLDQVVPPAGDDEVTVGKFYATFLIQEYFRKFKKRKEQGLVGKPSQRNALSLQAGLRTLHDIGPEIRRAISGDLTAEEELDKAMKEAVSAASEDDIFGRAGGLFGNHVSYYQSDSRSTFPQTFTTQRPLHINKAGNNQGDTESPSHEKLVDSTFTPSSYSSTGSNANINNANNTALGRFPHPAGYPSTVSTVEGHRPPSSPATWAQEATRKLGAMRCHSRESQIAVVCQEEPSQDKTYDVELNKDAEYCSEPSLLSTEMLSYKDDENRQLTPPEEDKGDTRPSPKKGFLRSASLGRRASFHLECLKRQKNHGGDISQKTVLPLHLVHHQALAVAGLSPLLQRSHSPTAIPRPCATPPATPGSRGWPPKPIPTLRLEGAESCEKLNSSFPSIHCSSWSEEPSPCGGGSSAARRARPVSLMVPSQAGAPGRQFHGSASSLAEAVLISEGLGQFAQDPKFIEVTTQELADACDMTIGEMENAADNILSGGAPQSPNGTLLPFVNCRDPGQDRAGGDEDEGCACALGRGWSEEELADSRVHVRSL
# Experiments:
# pithed rats = test: Anti-hypertensive activity in pithed rats (blood pressure elevated by angiotensin II infusion); format: in vivo, rat
# [1] = target: T1, K^+ -depolarized taenia preparations from the guinea pig caecum (Cavia porcellus, UniProt O35505); conditions: M. Spedding, Naunyn-Schmiedeberg's Arch. Pharmacol., 318, 234 (1982); cited from earlier work
# T1 construct: taenia preparations from the guinea pig caecum; from tissue; host or cells: guinea pig caecum, taenia (smooth muscle)
# [2] = test system: conscious spontaneously hypertensive rats (stroke prone strain); test: Anti-hypertensive effect in conscious spontaneously hypertensive rats (stroke prone strain); format: in vivo, rat
# Procedure: In this test, the test compound is injected in an indwelling cannula in the femoral vein and blood pressure is measured by an indwelling catheter in the femoral artery. Heart rate is also measured.
# [3] = test system: pentobarbitone-anesthetized rats; test: Anti-hypertensive effect in pentobarbitone-anesthetized rats; format: in vivo, rat; conditions: for Change in diastolic blood pressure / Change in heart rate: pentobarbitone-anesthetized rats
# Procedure: In this test, rats, anesthetized with a 45 to 60 mg/kg dose (i.p.) of sodium pentabarbitone, receive the test compound by injection by means of an indwelling cannula in the femoral vein. Diastolic blood pressure is measured by an indwelling catheter in the femoral artery. Heart rate is also measured.
smiles,measurement,setting,value
"COC(=O)C1=C(C)NC(C)=C(C(=O)OC)C1c1ccccc1[N+](=O)[O-] [Nifedipine, 4-(2'-nitrophenyl)-2,6-dimethyl-3,5-dicarbomethoxy-1,4-dihydropyridine, reference compound]",Change in diastolic blood pressure,pithed rats; 10 nmol/kg i.v.,92.5 ± 3.5 % control
same,Change in heart rate,pithed rats; 10 nmol/kg i.v.,100 % control
same,Change in diastolic blood pressure,pithed rats; 30 nmol/kg i.v.,74.6 ± 7.9 % control
same,Change in heart rate,pithed rats; 30 nmol/kg i.v.,97.6 ± 1.3 % control
same,Change in diastolic blood pressure,pithed rats; 100 nmol/kg i.v.,56.3 ± 4.6 % control
same,Change in heart rate,pithed rats; 100 nmol/kg i.v.,98.2 ± 1.8 % control
same,Change in diastolic blood pressure,pithed rats; 300 nmol/kg i.v.,50.1 ± 1.3 % control
same,Change in heart rate,pithed rats; 300 nmol/kg i.v.,92.2 ± 2.7 % control
same,Change in diastolic blood pressure,pithed rats; 1000 nmol/kg i.v.,19.5 ± 5.9 % control
same,Change in heart rate,pithed rats; 1000 nmol/kg i.v.,91.9 ± 2.9 % control
same,bradycardia,"pithed rats; i.v., result in words",not prominent
same,"diastolic blood pressure, elevated by an infusion of angiotensin II","pithed rats; i.v., result in words",significantly reduced
same,published pA2,[1],9.8±0.1
same,Fall in mean blood pressure,[2]; 100 nmol/kg i.v.,7.0 ± 1.5 mm Hg
same,Increase in heart rate,[2]; 100 nmol/kg i.v.,24.0 ± 2.5 beats/min
same,Fall in mean blood pressure,[2]; 300 nmol/kg i.v.,22.5 ± 3.5 mm Hg
same,Increase in heart rate,[2]; 300 nmol/kg i.v.,57.0 ± 5.8 beats/min
same,Fall in mean blood pressure,[2]; 1000 nmol/kg i.v.,43.1 ± 3.4 mm Hg
same,Increase in heart rate,[2]; 1000 nmol/kg i.v.,112.5 ± 4.8 beats/min
same,Fall in mean blood pressure,[2]; 3000 nmol/kg i.v.,63.1 ± 5.6 mm Hg
same,Increase in heart rate,[2]; 3000 nmol/kg i.v.,125.0 ± 13.2 beats/min
same,blood pressure,"[2]; i.v., result in words",significantly reduced blood pressure in a dose-dependent manner
same,reflex tachycardia,"[2]; i.v., result in words",produced reflex tachycardia
same,reflex tachycardia,"[3]; anesthetized rats, i.v., compared with Compound A, result in words",significantly more reflex tachycardia
same,blood pressure in anesthetized rats,"[3]; anesthetized rats, i.v., result in words",reduced blood pressure in anesthetized rats in a dose-dependent manner
same,Change in diastolic blood pressure,[3]; 10 nmol/kg i.v.,87.0 ± 3.7 % control
same,Change in heart rate,[3]; 10 nmol/kg i.v.,108.3 ± 2.0 % control
same,Change in diastolic blood pressure,[3]; 30 nmol/kg i.v.,86.6 ± 3.6 % control
same,Change in heart rate,[3]; 30 nmol/kg i.v.,113.5 ± 2.2 % control
same,Change in diastolic blood pressure,[3]; 100 nmol/kg i.v.,62.9 ± 3.6 % control
same,Change in heart rate,[3]; 100 nmol/kg i.v.,121.1 ± 3.3 % control
same,Change in diastolic blood pressure,[3]; 300 nmol/kg i.v.,68.3 ± 4.3 % control
same,Change in heart rate,[3]; 300 nmol/kg i.v.,118.1 ± 4.0 % control
same,Change in diastolic blood pressure,[3]; 1000 nmol/kg i.v.,54.2 ± 4.7 % control
same,Change in heart rate,[3]; 1000 nmol/kg i.v.,117.3 ± 5.2 % control
same,Change in diastolic blood pressure,[3]; 3000 nmol/kg i.v.,37.2 ± 3.1 % control
same,Change in heart rate,[3]; 3000 nmol/kg i.v.,113.0 ± 3.9 % control
